{"source": "PubChem BioAssay AID1259254 (NCATS, 2017)", "purpose": "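Finding genes that stop cells copying their DNA twice in one cycle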 (primary screen)", "system": "human HCT116 colorectal cancer cells", "reagent": "single siRNA against human genes", "time to read-out": "3 days", "detection": "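Nuclei stained with Hoechst and imaged; cell-cycle phase assigned by DNA content; G2 share scaled per plate, non-targeting siRNA 0%, GMNN siRNA 100%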", "direction": "G2 robust z-score and G2 cells, % of GMNN control: higher = more G2 cells, more excess DNA replication", "call rule": "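Active siRNAs have a G2 robust z of 5 or more median absolute deviations over the median, which in these data means about 38% or higher of GMNN control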", "note": "This is one part, drawn at random, of about 59,000 reagents tested. About 1,550 of them (2.6%) count as active. 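G2 share is only a proxy for re-replication; each gene was hit by three separate siRNAs, and active genes were retested.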 The numbers tell different reagents against one gene apart. Further read-outs or replicates are left out here. Reagent sequences are not shown. Not given: the amount of reagent."}
The opening 2 records, to show the layout:
{"gene symbol":"SCARB2","siRNA no.":1,"G2 robust z-score":2.08,"G2 cells, % of GMNN control":17.6,"Call":"inactive"}
{"gene symbol":"SCARB2","siRNA no.":2,"G2 robust z-score":-1.6,"G2 cells, % of GMNN control":-8.26,"Call":"inactive"}

The list itself, from the first entry:
{"gene symbol":"SCARB2","siRNA no.":1,"G2 robust z-score":2.08,"G2 cells, % of GMNN control":17.6,"Call":"inactive"}
{"gene symbol":"SCARB2","siRNA no.":2,"G2 robust z-score":-1.6,"G2 cells, % of GMNN control":-8.26,"Call":"inactive"}
{"gene symbol":"SCARB2","siRNA no.":3,"G2 robust z-score":-1.26,"G2 cells, % of GMNN control":-5.9,"Call":"inactive"}
{"gene symbol":"HLA-DRB7","siRNA no.":1,"G2 robust z-score":-0.485,"G2 cells, % of GMNN control":-0.448,"Call":"inactive"}
{"gene symbol":"HLA-DRB7","siRNA no.":2,"G2 robust z-score":2.79,"G2 cells, % of GMNN control":22.6,"Call":"inactive"}
{"gene symbol":"HLA-DRB7","siRNA no.":3,"G2 robust z-score":4.78,"G2 cells, % of GMNN control":36.6,"Call":"inactive"}
{"gene symbol":"DAP","siRNA no.":1,"G2 robust z-score":-0.736,"G2 cells, % of GMNN control":-2.21,"Call":"inactive"}
{"gene symbol":"DAP","siRNA no.":2,"G2 robust z-score":-0.184,"G2 cells, % of GMNN control":1.68,"Call":"inactive"}
{"gene symbol":"DAP","siRNA no.":3,"G2 robust z-score":-0.509,"G2 cells, % of GMNN control":-0.612,"Call":"inactive"}
{"gene symbol":"PPWD1","siRNA no.":1,"G2 robust z-score":1.8,"G2 cells, % of GMNN control":15.6,"Call":"inactive"}
{"gene symbol":"PPWD1","siRNA no.":2,"G2 robust z-score":1.91,"G2 cells, % of GMNN control":16.4,"Call":"inactive"}
{"gene symbol":"PPWD1","siRNA no.":3,"G2 robust z-score":0.609,"G2 cells, % of GMNN control":7.26,"Call":"inactive"}
{"gene symbol":"POLR2C","siRNA no.":1,"G2 robust z-score":1.55,"G2 cells, % of GMNN control":13.8,"Call":"inactive"}
{"gene symbol":"POLR2C","siRNA no.":2,"G2 robust z-score":1.4,"G2 cells, % of GMNN control":12.8,"Call":"inactive"}
{"gene symbol":"POLR2C","siRNA no.":3,"G2 robust z-score":1.3,"G2 cells, % of GMNN control":12.1,"Call":"inactive"}
{"gene symbol":"WDR45B","siRNA no.":1,"G2 robust z-score":0.256,"G2 cells, % of GMNN control":4.77,"Call":"inactive"}
{"gene symbol":"WDR45B","siRNA no.":2,"G2 robust z-score":0.575,"G2 cells, % of GMNN control":7.02,"Call":"inactive"}
{"gene symbol":"WDR45B","siRNA no.":3,"G2 robust z-score":0.51,"G2 cells, % of GMNN control":6.56,"Call":"inactive"}
